# Like-named read-outs stand apart in the source and are kept apart here.
# Tested on: T84 cells
# Assay: Electrogenic Cl- secretion (short circuit current, Isc) in confluent T84 monolayers
# Assay type: cell-based
# Settings: Homo sapiens
compound,measurement,setting,value
Clc1ccccc1C(c1ccccc1)(c1ccccc1)n1ccnc1 [clotrimazole],IC50,"T84, read-out: IC50 for inhibiting the secretory response to cholera toxin",10 µM
same,IC50,"T84, VIP-stimulated monolayers, read-out: IC50 for inhibiting the secretory response to cAMP",8 µM
same,IC50,"T84, carbachol 100 μM, monolayers initially stimulated with VIP, read-out: IC50 for inhibiting the secretory response to carbachol",3 µM
